Measurements reported in the supplement of paper PMC4604168 (melanoma cell lines).
The other results are listed elsewhere or left out. Repeats are few or missing, and single values can be far off.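 Imaging used 1,536-well plates; nuclei positive for cleaved PARP by antibody were divided by total DNA-stained nuclei to yield the apoptosis fraction. Doses for screening kept most cells viable, and cell lines differ markedly in resting and induced cleaved-PARP levels.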

Test system: UACC62
Assay: cleaved PARP positive nuclei fraction relative to DMSO control; melanoma cells; higher = more apoptosis
Conditions: library dose: low library concentration; 72 h

Row | SMILES | cleaved PARP positive nuclei fraction
1 | CCc1ccc(CCOc2ccc(CC3SC(=O)NC3=O)cc2)nc1 (stereo unspecified) [pioglitazone] + Cc1cc([N+](=O)[O-])ccc1NS(=O)(=O)c1cc(Cl)ccc1Cl [FH535] (first compound 2 µM, partner dose 1 µM) | 30.7%
2 | CCN(CC)CCCCNc1ncc2cc(-c3cc(OC)cc(OC)c3)c(NC(=O)NC(C)(C)C)nc2n1 + O=c1cc(-c2cccc3c2Sc2ccccc2S3)oc(N2CCOCC2)c1 [KU55933] (first compound 0.1 µM, partner dose 1 µM) | 31.6%
3 | COc1ccc(COc2ccc(Cc3cnc(N)nc3N)cc2OC)cc1 + O=C1NC(=O)/C(=C/c2ccc(-c3ccc(F)cc3O)o2)S1 [AS252424] (first compound 1 µM, partner dose 1 µM) | 69.7%
4 | Oc1cc(-c2nc(-c3ccccc3)[nH]c2-c2ccncc2)ccc1Cl + Cn1cc(/C=C2\C(=O)Nc3cccnc32)c2ccccc21 [GW441756] (first compound 0.2 µM, partner dose 0.4 µM) | 510%
5 | NCC(=O)Nc1ccc(-n2nc(C(F)(F)F)cc2-c2ccc3c(ccc4ccccc43)c2)cc1 + Oc1cc(-c2nc(-c3ccccc3)[nH]c2-c2ccncc2)ccc1Cl [L779450] (first compound 1 µM, partner dose 0.2 µM) | 319%
6 | O=S(=O)(c1ccccc1)N(CC(F)(F)F)c1ccc(C(O)(C(F)(F)F)C(F)(F)F)cc1 + CC(C)CCN1c2nc(Nc3cc(F)c(O)c(F)c3)ncc2N(C)C(=O)C1C [BID1870] (first compound 1.4 µM, partner dose 0.2 µM) | 40.6%
